Holding throughout (experiment): two-hybrid; bacterial two-hybrid (BTH): T18 and T25 fusions (pUT18 and p25N derivatives) in E. coli BTH101; colour of colonies on plates with 40 μg/ml X-gal
For assay [1], the target named is T1, DnaA of S. aureus (S. aureus) (UniProt Q2G2H5).
T1 sequence: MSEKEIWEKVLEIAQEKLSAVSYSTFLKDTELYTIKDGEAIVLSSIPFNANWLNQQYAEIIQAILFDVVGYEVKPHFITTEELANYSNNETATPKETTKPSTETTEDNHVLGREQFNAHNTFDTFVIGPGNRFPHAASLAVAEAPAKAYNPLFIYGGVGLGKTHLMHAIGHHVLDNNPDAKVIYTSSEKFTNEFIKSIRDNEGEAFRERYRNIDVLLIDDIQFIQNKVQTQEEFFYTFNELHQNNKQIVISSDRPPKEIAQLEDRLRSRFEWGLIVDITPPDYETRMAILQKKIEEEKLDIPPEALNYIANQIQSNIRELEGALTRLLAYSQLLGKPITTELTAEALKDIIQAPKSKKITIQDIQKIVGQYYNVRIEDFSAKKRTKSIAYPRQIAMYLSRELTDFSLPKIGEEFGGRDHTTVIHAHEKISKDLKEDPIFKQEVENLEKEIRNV

For assay [2], the target named is T2, DnaB of S. aureus (S. aureus) (UniProt Q2FXP4).
T2 sequence: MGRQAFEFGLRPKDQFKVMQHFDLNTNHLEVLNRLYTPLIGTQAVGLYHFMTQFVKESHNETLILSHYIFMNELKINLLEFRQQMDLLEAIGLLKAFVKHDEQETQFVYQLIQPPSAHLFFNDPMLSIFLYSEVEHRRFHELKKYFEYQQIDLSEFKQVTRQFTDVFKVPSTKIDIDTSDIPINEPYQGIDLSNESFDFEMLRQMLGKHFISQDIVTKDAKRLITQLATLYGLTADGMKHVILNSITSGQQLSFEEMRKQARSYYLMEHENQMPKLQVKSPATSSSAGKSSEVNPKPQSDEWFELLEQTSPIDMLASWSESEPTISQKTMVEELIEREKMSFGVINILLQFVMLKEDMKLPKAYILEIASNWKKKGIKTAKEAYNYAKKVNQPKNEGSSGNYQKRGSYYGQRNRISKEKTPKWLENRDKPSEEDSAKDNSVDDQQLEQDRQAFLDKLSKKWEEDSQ

The target of assay [3] is HolA (δ) of S. aureus (S. aureus).
Assay [4] deals with HolB (δ`) of S. aureus (S. aureus).

Consider five molecules from paper PMC3762901, “Cyclic Peptide Inhibitors of the β-Sliding Clamp in Staphylococcus aureus” (PLoS ONE, 2013).

No constants are given. Whether binding was seen depends on the method and setting. For some assays here: Binding calls can cover weak binding; strength is not graded here.

Regarding “DnaX (τ) of S. aureus (from UniProt A0A0H2XIT2)”, the binding result in assay [1] and in assay [2] was “no binding” in each case. As to “HolB (δ`) of S. aureus (from UniProt A0A0H2XHN8 1-308)”, the binding entry in assay [3] and in assay [4] was “binds” in each case. Take PolC of S. aureus: the binding result in assay [1] and in assay [2] was “no binding” in each case.

B1: DnaB of S. aureus (protein, UniProt Q2FXP4 1-466)
chain: MGRQAFEFGLRPKDQFKVMQHFDLNTNHLEVLNRLYTPLIGTQAVGLYHFMTQFVKESHNETLILSHYIFMNELKINLLEFRQQMDLLEAIGLLKAFVKHDEQETQFVYQLIQPPSAHLFFNDPMLSIFLYSEVEHRRFHELKKYFEYQQIDLSEFKQVTRQFTDVFKVPSTKIDIDTSDIPINEPYQGIDLSNESFDFEMLRQMLGKHFISQDIVTKDAKRLITQLATLYGLTADGMKHVILNSITSGQQLSFEEMRKQARSYYLMEHENQMPKLQVKSPATSSSAGKSSEVNPKPQSDEWFELLEQTSPIDMLASWSESEPTISQKTMVEELIEREKMSFGVINILLQFVMLKEDMKLPKAYILEIASNWKKKGIKTAKEAYNYAKKVNQPKNEGSSGNYQKRGSYYGQRNRISKEKTPKWLENRDKPSEEDSAKDNSVDDQQLEQDRQAFLDKLSKKWEEDSQ
Consider B1, for which the binding result in assay [3] is given as “no binding”.

B2: DnaA of S. aureus (protein, UniProt Q2G2H5 1-453)
chain: MSEKEIWEKVLEIAQEKLSAVSYSTFLKDTELYTIKDGEAIVLSSIPFNANWLNQQYAEIIQAILFDVVGYEVKPHFITTEELANYSNNETATPKETTKPSTETTEDNHVLGREQFNAHNTFDTFVIGPGNRFPHAASLAVAEAPAKAYNPLFIYGGVGLGKTHLMHAIGHHVLDNNPDAKVIYTSSEKFTNEFIKSIRDNEGEAFRERYRNIDVLLIDDIQFIQNKVQTQEEFFYTFNELHQNNKQIVISSDRPPKEIAQLEDRLRSRFEWGLIVDITPPDYETRMAILQKKIEEEKLDIPPEALNYIANQIQSNIRELEGALTRLLAYSQLLGKPITTELTAEALKDIIQAPKSKKITIQDIQKIVGQYYNVRIEDFSAKKRTKSIAYPRQIAMYLSRELTDFSLPKIGEEFGGRDHTTVIHAHEKISKDLKEDPIFKQEVENLEKEIRNV
For B2, the binding entry in assay [3] is “no binding”.
